{
  "source": "patent US20130296363A1",
  "about": "“QUINOLINE AND ISOQUINOLINE DERIVATIVES FOR USE AS JAK MODULATORS” (AMBIT BIOSCIENCES CORPORATION, priority 2010, published 2013)",
  "system": "panel of distinct kinases excluding mutant variants, typically 359 or 386 kinases",
  "experiment": "Kinase selectivity score S10 from competition binding panel",
  "settings": "compound at 10 μM; fraction of kinases with inhibition of 90% or greater",
  "description": "Competition binding assays used herein were developed, validated and performed as described in Fabian et al., Nature Biotechnology 2005, 23, 329-336. Kinases were produced as fusions to T7 phage (See, Fabian et al. or WO04/015142) or alternatively, the kinases were expressed in HEK-293 cells and subsequently tagged with DNA for PCR detection (See, WO08/005,310). For the binding assays, streptavidin-coated magnetic beads were treated with biotinylated affinity ligands for 30 min at rt to generate affinity resins. The liganded beads were blocked with excess biotin and washed with blocking buffer (SeaBlock (Pierce), 1% BSA, 0.05% Tween 20, 1 mM DTT) to remove unbound ligand and to reduce non-specific binding. Binding reactions were assembled by combining kinase, liganded affinity beads, and test compounds in 1× binding buffer (20% SeaBlock, 0.17×PBS, 0.05% Tween 20, 6 mM DTT). […] The kinase concentration in the eluates was measured by quantitative PCR. […] Kds were determined using eleven serial threefold dilutions. A selectivity score, which is a quantitative measure of selectivity of a compound against a panel of enzymes, may be calculated for a compound by dividing the number of enzymes for which a compound meets a set criteria, (for example, a binding constant of 100 nM or less), by the total number of enzymes tested.",
  "note": "For at least one compound, name, drawing or mass did not settle the structure.",
  "data": [
    {"molecule": "Cc1cc(Nc2nc(C(O)c3ccc(F)cc3)cc3ccccc23)n[nH]1", "note": "(racemic) [Example 2, (R,S)-(4-fluorophenyl)(1-(5-methyl-1H-pyrazol-3-ylamino)isoquinolin-3-yl)methanol]", "values": [
      {"measurement": "S-Score: S(10) at 10 μM", "result": "A (A ≦ 0.3)"}
    ]}
  ]
}
